Here are results for 66 sequences from PubChem BioAssay AID1347423 (Functional Genomics Laboratory (NCATS/FGL), 2020).

The whole screen tested about 52,000 sequences, of which about 210 (0.4%) were called active.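 The calls were made as follows: active = gene whose silencing raises cell survival under the drug, median off-target-corrected z-score across its silencing RNAs 2 or more; inactive = the rest.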 The list shows a part of the results.

A short description of this assay: Resistance to Poly (ADP-Ribose) Polymerase inhibitor: Gene Identification via Genome-wide siRNA Screen. The note with it: mouse BRCA2 R2336H ES cells, olaparib, CellTiter-Glo viability; hits give high values. A digest of the protocol: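 Genome-wide siRNA screen (3 siRNAs/gene, 20 nM) in mouse ES cells carrying hypomorphic BRCA2 R2336H; olaparib 500 nM added 48 h post-transfection, CellTiter-Glo viability 72 h later. Normalized to plate-median negative control; MAD z-scores, gene median, seed-adjusted.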
On the technique in general: Cellular ATP, detected with luciferase, serves as a proxy for viable cell number.
On to GGACUUGAAGAACUGUUAUTT against Stch, for which the z-score was inactive: 0.603.

Take GCGAAGUUACUACAGACGUTT against Slc39a1: the z-score was inactive: 0.822.

On to “CCUUUAACCCUUUACACCUTT against E130012A19Rik”, for which the z-score is inactive: -0.141. “GGAUGUAGGCAGUAGUAGCTT against 4931428F04Rik”: the z-score was inactive: 1.62. As to CCUUUGUCUUUGGUAAAUCTT against BC053917, the z-score is inactive: -0.257. With “GGUUCAGCUCAUAUAUAAUTT against D630029K05Rik”, the z-score is inactive: -0.0583.

With “CCAAUUCAAUUAGACUAGATT against 9430015G10Rik”, the z-score is inactive: 0.926. Under GGAAAUCUUCAGAAAAAGATT against Gucy1a3 stands inactive: -1.61. As to GCUUCCUACAAUUAAUUCATT against Prkrir, the z-score was inactive: 0.639. On to GGGCCUGAAAAGACCAUCATT against Olfr124, for which the z-score is inactive: -0.735.

Take CCUCAUUUCAACCAUUCACTT against Lyzl6: the z-score is inactive: 0.136. As for “GCAAUAAGGUAAAUGACUATT against C130058G22Rik”, the z-score is inactive: -0.162.

Take GUUCACCGACAAGAGCUGCTT against LOC541307: the z-score is inactive: -0.255. Take GGGCUAUGGCUCCUUUGUGTT against Rhpn1: the z-score is inactive: 0.487. Next, CUACUUCGAGAACAUGGGUTT against Gtrgeo22: inactive: -0.406. For the sequence GCUAUAUCUAAAGCUAUUCTT against Sgpp1, the z-score is active: 0.574.

Turning to GCAGGUAGCUAAAGAAAACTT against Rangnrf, the z-score is inactive: -0.243.

In the case of GGUAUUUCGAAACCUCCGUTT against H2-Q10, the z-score is inactive: 1.27. Next, GGCUCAUCAUUGAGAACAUTT against Zmym1: inactive: -0.404; GCGAUCACAGACAUCAUUGTT against Rabgef1: inactive: -0.0321; “GGAGUUAAGAAAGAAAACATT against 1700023B02Rik”: inactive: 0.354. Under GGUCUUUCAUUGAAGCUGATT against Il1b stands inactive: 1.54; under “GGAAUUAAACCAUUUCAGUTT against 6030404E16Rik”, inactive: -0.0932. For GGAGAUGGGUUUAAGCCCUTT against Scube3, the z-score was inactive: -0.254. In the case of GCCUGGGUAUGAAGAAAUUTT against Pla2g2f, the z-score was inactive: -0.337. Turning to GGCUAAAUUAUUGCGCAAATT against C1qbp, the z-score is inactive: -0.998. Take “GGAGCUGUCAUUUAAGAAATT against 9430041O17Rik”: the z-score is inactive: 0.957. As to UUUAAGGAUCUCGUGCGAATT against Olfr809, the z-score was inactive: -0.81. Regarding GGCCAUCAAGGUCUUUUCUTT against ORF19, the z-score is inactive: -0.164. Take GGGAGGAUCAAGGCCUUCUTT against Olfr62: the z-score was inactive: 0.928. Turning to GCAGUGGUUAUCCAAGUAUTT against Chrm1, the z-score was inactive: -2. On to GGUUCUUAGGAGUUAACUCTT against Klf16, for which the z-score was inactive: 0.459. Turning to GGUAUACGUCUGAUAAUGATT against Calmbp1, the z-score was inactive: 0.883. For GCUGCACGAUCGGAAUGGUTT against Gm1395, the z-score is inactive: -2.15. Take GGCAUAUGACCAUCAUAAUTT against Porcn: the z-score was inactive: 0.147. Under CGAAUUAUAGCAUUCAGCCTT against Map3k3 stands inactive: 0.789. For the sequence GGAUAUUUGGAGAGAGAGGTT against Lrrn2, the z-score was inactive: 0.112. Consider CGACUACCUGGAUAUCUACTT against Efna2, for which the z-score is inactive: 0.842. Consider GGCUGUGGAACACAUCAACTT against Eno3, for which the z-score was inactive: 0.441. GUAUGAACACGCAGCAAACTT against Mmd2: the z-score was inactive: -1.93. As to GGCAUGAGAAUUGGUCCAGTT against Ehd4, the z-score is inactive: -2.32. Next, GGGUCUACGAAGAAUAGGGTT against Cxcl14: inactive: 0.248. Take CCGGCAUUACCGAUCGUAATT against Tacstd1: the z-score was inactive: -0.451. Take GGGACCUCCAUCGUAUUUGTT against Slc29a4: the z-score was inactive: 0.15. In the case of “GGAAAGUCUUGAUGAGUUGTT against C230043N17Rik”, the z-score was inactive: 0.408.

For the sequence GGUCCGAUAUCUGAGUCUCTT against Hic1, the z-score was inactive: -0.221. GCACUCAGCUAGGUGAAGATT against Hnrpul1: the z-score was inactive: -1.79. Under “GGGUAUCAUUGUUUACCGATT against 1700034J06Rik” stands inactive: -0.431. Take “GGUGAACAAUCUUUUCCAGTT against 4930412F15Rik”: the z-score was inactive: -0.16. As to GGCACCACUAAUCAUCAGATT against Pbef1, the z-score was inactive: 0.218. Consider GGGUGUGUUUUUAUGUGUUTT against Lcp2, for which the z-score was inactive: -0.943. Under GGAUGGUAUUCCUAACCAGTT against Ccrk stands inactive: -0.534; under GGUUGUUUUGCUUGUUGUATT against Tgfb1i4, inactive: 1.16; under GGUCCGGAACAAAUUAGAUTT against Eif2ak1, inactive: 0.546. As for CCUGUUAAUGACACCCACGTT against Slc37a2, the z-score is inactive: -0.529.

For the sequence GCUUUGUUGUACGACAACATT against Agr2, the z-score was inactive: 0.315.

As for “GGACCUGUAUUCACACCUUTT against 2700038L12Rik”, the z-score was inactive: 1.84. With GGCAGAAGAGUGGUACAAGTT against Dok4, the z-score was inactive: 0.586. For the sequence GAGACUAAGCAGUGGAAGATT against Krtap21-1, the z-score is inactive: -0.468. With “GGUGCAAGUUUUGGUGGGATT against 4833442J19Rik”, the z-score is inactive: -1.92. In the case of GGGAAUGUAAACAAAGUCATT against Iqgap1, the z-score is inactive: 0.788. For the sequence GGUGACUGACAACCAGACATT against Dkkl1, the z-score was inactive: -0.172. For GGGAGUAAUGUUCUAAUCATT against Msh4, the z-score is inactive: 0.579.

In the case of AACUUUCUCAUUCUUACUGTT against Olfr961, the z-score was inactive: -1.05. Under “CCUUUCAUCACAAAGAAUGTT against 2010106G01Rik” stands inactive: 0.16; under GGCUAAUAAGUUCAAUCAATT against Wisp1, inactive: 2.45.
